This experiment relates to MCF-7 cells. The experiment can be described thus: Breast Cancer Cell Viability Assay (CellTiter-Glo). Format: cell-based. The settings on record: Homo sapiens, MCF7, 120 h, 5 days of compound exposure, read-out: MCF7 viab IC50. On the procedure: The following day a 10 point, serial 1:5 dilution of each compound was added to the cells in 16 μL at a final concentration ranging from 10-0.00000 μM. After 5 days of compound exposure, 16 μL of CellTiter-GLo (Promega, Madison Wis.) was added to the cells, and the relative luminescence units (RLUs) of each well were determined. CellTiter-Glo added to 32 μL of medium without cells was used to obtain a background value.
A general note: Cellular ATP, detected with luciferase, serves as a proxy for viable cell number.

For the compound `CC/C(=C(\c1ccccc1)c1ccc(OCCN(C)C)cc1)c1ccccc1` [tamoxifen, reference compound], the IC50 (in general, the concentration that inhibits the measured activity by half) stood at 380 nM.

These data come from patent US10053451B2, “Heterocyclic estrogen receptor modulators and uses thereof” (priority 2015, dated 2018).
